assay: solid-state NMR, 2H spin-lattice relaxation rate (R1) of frozen D2O; settings: 16 mM frozen hydrogel, total overall proton concentration 479 mM

| SMILES | R1 of frozen D2O [s⁻¹] |
| --- | --- |
| CCCCCCCCNC(=O)[C@H](O)[C@@H](O)[C@@H](O)[C@H](O)CO [compound 6, N-octyl-D-galactonamide] | 0.030 ± 0.001 |

same assay, conditions: corrected to total overall proton concentration of 1234 mM (compounds 3, 4: 44 mM; compound 5: 42 mM frozen hydrogel; sugars: 103 mM)

| SMILES | R1 of frozen D2O [s⁻¹] |
| --- | --- |
| O=C[C@H](O)[C@@H](O)[C@@H](O)[C@H](O)CO [D-galactose, reference compound] | 0.0154 ± 0.0003 |
| O=C[C@H](O)[C@@H](O)[C@H](O)[C@H](O)CO [D-glucose, reference compound] | 0.0132 ± 0.0001 |
| CCCCCCCCO[C@@H]1OC(CO)[C@@H](O)[C@H](O)C1O (stereo partly drawn) [compound 3, n-octyl-β-D-glucopyranoside] | 0.0190 ± 0.0002 |
| CCCCCCCCO[C@@H]1OC(CO)[C@H](O)[C@H](O)C1O (stereo partly drawn) [compound 4, n-octyl-β-D-galactopyranoside] | 0.0209 ± 0.0002 |
| CCCCCCCCNC(=O)[C@H](O)[C@@H](O)[C@H](O)[C@H](O)CO [compound 5, N-octyl-D-gluconamide] | 0.0310 ± 0.0005 |
